According to PMC7247549, “Biochemical Convergence of Mitochondrial Hsp70 System Specialized in Iron–Sulfur Cluster Biogenesis” (International Journal of Molecular Sciences, 2020):
These are yes or no findings as the source states them, for the method shown. Binding calls can cover weak binding; strength is not graded here. Sequences can lack the tags named with a protein.

How the values were obtained:
[1] = target: T1, Isu1-GST fusion protein (S. cerevisiae) (UniProt Q03020); assay: pull-down; Isu1-GST (2.5 μM) with Ssq1 (4 μM), 4 mM ATP and increasing Hsc20 (0.0025-0.25 μM), PD buffer, 15 min at 25 °C, then glutathione resin; bound Ssq1 by densitometry; both purified
T1 sequence: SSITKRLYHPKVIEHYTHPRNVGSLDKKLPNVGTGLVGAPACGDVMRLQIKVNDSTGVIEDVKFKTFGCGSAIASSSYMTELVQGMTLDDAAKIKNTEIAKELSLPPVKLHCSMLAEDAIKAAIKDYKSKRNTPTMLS

[2] = target: T1, Isu1-GST fusion protein (S. cerevisiae); assay: pull-down; Isu1-GST (30 μM) incubated with increasing Ssq1, 4 mM ATP, PD buffer, 15 min at 25 °C, then glutathione resin; SDS-PAGE, Coomassie, densitometry; both purified

binding [1]: binds
binding [2]: binds
Substance: Ssq1 (S. cerevisiae)
